The whole screen tested about 300,000 compounds, of which about 5,400 (1.8%) were called active. The shares of active, inactive and inconclusive entries below differ from those in the screen. Calls come from the whole dose curve; tested in HEK293 cells. A potency beside an inconclusive call is a rough fit, not a confirmed value. Some structures have more than one record in an assay (separate samples or runs), and their calls can disagree.
experiment: qHTS for inhibitors of binding or entry into cells for Marburg Virus; conditions: Marburg virus pseudotyped entry inhibition, cell reporter; activity change, negative = inhibition: at 37.8 µM (top of the series) unless noted
% is set by controls: 0 for no effect and ±100 for the full control effect; potency is the fitted concentration of half-maximal effect.

Row | SMILES | Potency | activity change, negative = inhibition
1 | Cc1ccc(CCNC(=O)CCSCc2ccc(Cl)cc2)cc1 | inconclusive: 4.47 µM [activator, full curve, poor fit] | –
2 | NC(=O)C1=CN(Cc2ccc(Cl)cc2)CCC1C(F)(F)F (centres undefined) | inconclusive: 22.4 µM [inhibitor, single point] | –
3 | CCc1cc(C(=O)Cc2cnn(-c3ccccc3)c2)c(O)cc1O | inconclusive: 0.0058 µM [inhibitor, full curve, poor fit] | –
4 | Cc1oc2cc(O)ccc2c(=O)c1-c1nncn1-c1ccccc1 | – | inactive: 18.8% [at 46.1 µM]
5 | N/C(Cc1cccs1)=N\OC(=O)COc1ccccc1 | inconclusive: 15.8 µM [activator, single point] | –
6 | COCCCn1c(=N)c(C(=O)NC2CCCC2)cc2c(=O)n3ccccc3nc21 | inconclusive: 11.2 µM [inhibitor, single point] | –
7 | CN(CC(=O)Nc1ccccc1F)Cc1cccs1 | inconclusive: 15.8 µM [activator, single point] | –
8 | COc1ccc(CC(=O)N2CCc3cc(OC)c(OC)cc3C2)cc1 | – | inactive: 0.48% [at 46.1 µM]
9 | CC(=O)N(C1CC(C)C(C#N)(C#N)C1(C#N)C#N)N(C)C (centres undefined) | inconclusive: 35.5 µM [inhibitor, partial curve, poor fit] | –
10 | CN(C)CCN(C)Cc1c2ccccc2c(CN(C)CCN(C)C)c2ccccc12 | inconclusive: 5.01 µM [inhibitor, partial curve, poor fit] | –
11 | CC(C)c1ccc(Oc2cccc3c2S(=O)(=O)N([C@H](C)c2ccccc2)C[C@@H](COCc2ccccc2)O3)cc1 | inconclusive: 9.95 µM [inhibitor, full curve, poor fit] | –
12 | Cc1ccc2nc(SCC(=O)NC(=O)NCc3ccco3)[nH]c2c1 | – | inactive: 14.4%
13 | Cc1cc(C)n2nc(N)c(N=Nc3ccccc3)c2n1 | inconclusive: 12.6 µM [inhibitor, partial curve, poor fit] | –
14 | CCOc1cccc2sc(N(CCCN(C)C)C(=O)c3ccc(C(=O)c4ccccc4)cc3)nc12 | inconclusive: 3.16 µM [inhibitor, partial curve, poor fit] | –
15 | CCCCn1nnnc1SCC(=O)Nc1ccc2c(c1)OCCO2 | – | inactive: 11.9% [at 46.1 µM]
16 | CC(C)NC(=O)c1cc(-c2cccs2)on1 | inconclusive: 5.62 µM [activator, single point] | –
17 | CCOc1ccc(NC(=O)Cn2c(=O)n(Cc3ccc(C(=O)NCc4ccc5c(c4)OCO5)cc3)c(=O)c3ccccc32)cc1 | – | inactive: -5.94% [at 46.1 µM]
18 | Cc1noc(C)c1CN1C(=O)NC2(CCc3ccccc3C2)C1=O (centres undefined) | inconclusive: 6.31 µM [activator, single point] | –
19 | N#C/C=C/C(=C\Nc1ccc(Cl)cc1)S(=O)(=O)c1ccccc1 | – | inactive: -18.2% [at 46.1 µM]
20 | O=c1cc(N2CCOCC2)oc2c(-c3ccccc3)cccc12 | active: 0.316 µM | –
21 | CCCCOc1ccc(N(CC(=O)NCc2ccccc2)C(=O)c2csnn2)cc1 | – | inactive: 10.4% [at 46.1 µM]
22 | O=C(CCC1CCCN(C(=O)c2ccco2)C1)NCc1ccccc1F (centres undefined) | – | inactive: -0.46% [at 46.1 µM]

Not a retest: eight of the compounds above.
Row | SMILES | Potency | activity change, negative = inhibition
5 | N/C(Cc1cccs1)=N\OC(=O)COc1ccccc1 | inconclusive: 15.8 µM [activator, single point] | –
6 | COCCCn1c(=N)c(C(=O)NC2CCCC2)cc2c(=O)n3ccccc3nc21 | inconclusive: 11.2 µM [inhibitor, single point] | –
7 | CN(CC(=O)Nc1ccccc1F)Cc1cccs1 | inconclusive: 15.8 µM [activator, single point] | –
8 | COc1ccc(CC(=O)N2CCc3cc(OC)c(OC)cc3C2)cc1 | – | inactive: 0.48% [at 46.1 µM]
9 | CC(=O)N(C1CC(C)C(C#N)(C#N)C1(C#N)C#N)N(C)C (centres undefined) | inconclusive: 35.5 µM [inhibitor, partial curve, poor fit] | –
10 | CN(C)CCN(C)Cc1c2ccccc2c(CN(C)CCN(C)C)c2ccccc12 | inconclusive: 5.01 µM [inhibitor, partial curve, poor fit] | –
11 | CC(C)c1ccc(Oc2cccc3c2S(=O)(=O)N([C@H](C)c2ccccc2)C[C@@H](COCc2ccccc2)O3)cc1 | inconclusive: 9.95 µM [inhibitor, full curve, poor fit] | –
12 | Cc1ccc2nc(SCC(=O)NC(=O)NCc3ccco3)[nH]c2c1 | – | inactive: 14.4%

The listing continues:

Row | SMILES | Potency | activity change, negative = inhibition
23 | N=C1CCCN1CC(=O)c1ccc(Cl)cc1 | inconclusive: 3.98 µM [activator, single point] | –
24 | CC(/C=N/NC(=O)c1cc(C(C)(C)C)[nH]n1)=C\c1ccccc1 | inconclusive: 35.5 µM [inhibitor, single point] | –
25 | C/C(=C\C(=O)c1ccc(Br)cc1)Nc1cccc(Cl)c1 | inconclusive: 1.41 µM [activator, single point] | –
26 | Nc1ccc(Br)cc1C(=O)O | – | inactive: 1.29%
27 | CCOc1ccc(-c2cc(NC(=O)Nc3ccccc3C(F)(F)F)c(C(=O)OC)s2)cc1 | – | inactive: 17.2% [at 46.1 µM]
28 | Cc1ccc(Cn2c(C(=O)NCCCN3CCOCC3)cc3sccc32)cc1 | inconclusive: 16.4 µM [inhibitor, single point] | –
29 | O=C(Nc1nc2ccc(Br)cc2s1)c1ccco1 | inconclusive: 35.5 µM [inhibitor, single point] | –
30 | CCN1CCN(C(CNS(=O)(=O)c2ccc(OC)c(C)c2)c2cccnc2)CC1 (centres undefined) | – | inactive: 3.29%
31 | COc1ccc(Nc2nnc(SC(C(=O)Nc3cc(C)ccc3C)c3ccccc3)s2)cc1 (centres undefined) | inconclusive: 3.55 µM [inhibitor, full curve] | –
32 | CC/C(=C\c1ccc(N(C)C)cc1)c1ccncc1 | inconclusive: 11.2 µM [inhibitor, single point] | –
33 | O=C(Nc1cc2c(cc1C(=O)O)OCCCO2)c1ccc(C(F)(F)F)cc1 | inconclusive: 0.562 µM [activator, full curve, poor fit] | –
34 | C/C(Cn1nnc([N+](=O)[O-])n1)=N\NC(=O)c1cccc(Cl)c1 | inconclusive: 18.3 µM [inhibitor, single point] | –
35 | CN1CCN(C2=Cc3ccccc3Sc3cc(F)c(F)cc32)CC1 | inconclusive: 35.5 µM [inhibitor, partial curve, poor fit] | –
36 | CCn1c(SCC(=O)Nc2nc(-c3ccc(C)cc3)cs2)nnc1-c1ccccc1O | inconclusive: 20 µM [inhibitor, partial curve, poor fit] | –
37 | O=C(NC1CC1)c1cc(Cl)ccc1[N+](=O)[O-] | inconclusive: 8.2 µM [inhibitor, partial curve, poor fit] | –
38 | NC(=O)c1ccc(C(=O)N/N=C(/Cc2ccccc2)c2ccccc2)cc1 | – | inactive: 5.68%
39 | O=C(c1ccc(F)cc1)n1nc(-c2ccc(Cl)cc2)nc1NCc1ccco1 | inconclusive: 1 µM [activator, full curve, poor fit] | –
40 | O=C(N/N=C/c1cc(Br)cc(Br)c1O)c1cccc(N2CCCC2=O)c1 | inconclusive: 4.47 µM [inhibitor, full curve, poor fit] | –
41 | COc1ccc(CNC(=O)N2CCN(S(=O)(=O)c3ccccc3)CC2)cc1 | – | inactive: -7.87% [at 46.1 µM]
42 | Cc1ccc(N(C(=O)c2ccco2)C(C(=O)NC2CCCC2)c2ccco2)c(C)c1 (centres undefined) | inconclusive: 12.6 µM [inhibitor, partial curve, poor fit] | –
43 | O=C(/C=C/c1ccc2c(c1)OCO2)NCCSCc1ccc(Cl)cc1Cl | inconclusive: 0.316 µM [activator, partial curve, poor fit] | –
44 | Cc1nnnn1/C(=C\c1ccccc1)C(=O)OCC(=O)N1CC2(C)CC1CC(C)(C)C2 (centres undefined) | inconclusive: 20.6 µM [inhibitor, single point] | –

From PubChem BioAssay AID540276 (National Center for Advancing Translational Sciences (NCATS), 2011)
